Where no end group is shown, it is not given here. The star is where a group is joined. Biotin = O=C1N[C@H]2[C@H](CS[C@H]2CCCCC(=O)*)N1
Assay: general procedure: Fmoc solid-phase peptide synthesis; Fmoc-Linker AM-Champion, 1% cross-linked (Biosearch Technologies), PEG-PS based resin with modified Rink linker; HBTU/DIEA
Conditions: for oxidative folding yield: oxidative folding step, overall yield of the oxidation reaction, several disulfide bridges, sequence written open

With (Biotin-CCIPN17)3 the oxidative folding yield was “more than 80%”.
With “(CCGGIKKEIEAIKKEQEAIKKKIEAIEKLLQLTVWGIKQLQARIL)3 (disulfide-linked trimer)” the oxidative folding yield was “more than 80%”.
For (CCIPN17)3, the oxidative folding yield was “more than 80%”.
In the case of “Biotin-GCCGGIKKEIEAIKKEQEAIKKKIEAIEK (cysteine pairing not given here)”, the “final HPLC purity” value (whole synthesis, analytical HPLC, Phenomenex Jupiter C4 column) is reported as “purity 70%”.
